PMC6765148
These are yes or no findings as the source states them, for the method shown. In cells and extracts the contact can be indirect. These calls come from enrichment with a bait or labelling near it, and not all partners need be listed.

By UniProt entry, the sequences of proteins in these tests, tags left out.
UniProt P51784: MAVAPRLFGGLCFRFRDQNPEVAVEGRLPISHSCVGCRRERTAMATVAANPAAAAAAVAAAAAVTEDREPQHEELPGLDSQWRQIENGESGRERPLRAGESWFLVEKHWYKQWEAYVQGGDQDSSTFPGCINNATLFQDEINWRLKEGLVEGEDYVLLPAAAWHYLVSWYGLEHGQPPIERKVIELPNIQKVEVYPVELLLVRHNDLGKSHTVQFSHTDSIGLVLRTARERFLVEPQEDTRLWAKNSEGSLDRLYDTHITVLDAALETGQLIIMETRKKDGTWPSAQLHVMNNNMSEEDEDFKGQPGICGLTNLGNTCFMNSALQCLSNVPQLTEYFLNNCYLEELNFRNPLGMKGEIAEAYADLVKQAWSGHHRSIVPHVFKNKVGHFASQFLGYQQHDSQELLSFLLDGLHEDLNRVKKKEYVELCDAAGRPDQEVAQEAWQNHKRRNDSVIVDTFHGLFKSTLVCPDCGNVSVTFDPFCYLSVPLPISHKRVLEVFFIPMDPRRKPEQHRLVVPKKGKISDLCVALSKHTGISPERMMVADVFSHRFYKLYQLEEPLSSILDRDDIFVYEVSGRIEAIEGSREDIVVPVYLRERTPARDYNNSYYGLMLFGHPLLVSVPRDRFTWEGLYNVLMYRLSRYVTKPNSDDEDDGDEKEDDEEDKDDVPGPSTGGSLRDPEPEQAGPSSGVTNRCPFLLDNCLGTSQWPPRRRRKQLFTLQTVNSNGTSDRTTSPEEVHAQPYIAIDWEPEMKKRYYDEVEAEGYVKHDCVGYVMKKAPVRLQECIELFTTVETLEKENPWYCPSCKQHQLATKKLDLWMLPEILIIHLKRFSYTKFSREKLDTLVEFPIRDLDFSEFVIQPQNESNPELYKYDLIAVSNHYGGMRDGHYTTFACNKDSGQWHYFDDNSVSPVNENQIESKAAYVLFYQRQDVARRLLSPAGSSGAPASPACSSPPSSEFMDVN
UniProt Q92769: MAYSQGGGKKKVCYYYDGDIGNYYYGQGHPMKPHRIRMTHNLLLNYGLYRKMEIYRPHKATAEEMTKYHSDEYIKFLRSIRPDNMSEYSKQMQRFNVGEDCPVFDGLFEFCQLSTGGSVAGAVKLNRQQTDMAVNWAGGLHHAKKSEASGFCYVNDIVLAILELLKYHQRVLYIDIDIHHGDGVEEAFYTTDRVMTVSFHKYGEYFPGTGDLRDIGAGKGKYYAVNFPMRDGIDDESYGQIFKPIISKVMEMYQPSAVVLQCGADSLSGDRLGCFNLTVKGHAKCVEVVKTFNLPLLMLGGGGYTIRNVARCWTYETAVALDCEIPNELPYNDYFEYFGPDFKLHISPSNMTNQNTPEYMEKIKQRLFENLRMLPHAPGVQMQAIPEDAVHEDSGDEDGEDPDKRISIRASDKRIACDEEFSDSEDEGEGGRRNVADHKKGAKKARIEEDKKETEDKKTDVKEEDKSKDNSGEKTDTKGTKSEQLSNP
UniProt Q09028: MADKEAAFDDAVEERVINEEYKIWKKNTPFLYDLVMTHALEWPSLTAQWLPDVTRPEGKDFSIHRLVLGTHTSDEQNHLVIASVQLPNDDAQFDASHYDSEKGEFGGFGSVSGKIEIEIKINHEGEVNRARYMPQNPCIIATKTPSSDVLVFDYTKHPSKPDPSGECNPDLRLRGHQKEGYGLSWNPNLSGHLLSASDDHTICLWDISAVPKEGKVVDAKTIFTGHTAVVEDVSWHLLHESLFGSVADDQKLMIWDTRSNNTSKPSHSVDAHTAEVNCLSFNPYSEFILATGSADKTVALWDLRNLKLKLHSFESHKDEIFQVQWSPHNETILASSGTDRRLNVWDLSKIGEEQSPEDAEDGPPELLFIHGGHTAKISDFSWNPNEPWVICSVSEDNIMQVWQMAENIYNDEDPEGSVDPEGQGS

Molecular target: FLAG-USP11 (UniProt P51784)
Experiment: affinity purification with mass spectrometry; extracts of HEK293T stably expressing FLAG-USP11 (150 mM NaCl, 0.3% NP-40, 1 mM DTT, 5 mM EDTA, 50 mM Tris-HCl pH 7.4) on anti-FLAG M2 resin, washed with PBS plus 0.3% NP-40, eluted with FLAG peptide, gel bands analysed by LC-MS/MS

Substance | binding
HDAC2 (endogenous, HEK293T) (from UniProt Q92769 1-488) (enzyme) | binds
RbAp48 (endogenous, HEK293T) (from UniProt Q09028 1-425) | binds
